Reference: article PMC7916783
No constants are given. Whether binding was seen depends on the method and setting. Some entries that bind do so weakly or less than the wild type.

Protein sequences, listed by entry. Tags and fused reporters are not part of them.
UniProt Q01959: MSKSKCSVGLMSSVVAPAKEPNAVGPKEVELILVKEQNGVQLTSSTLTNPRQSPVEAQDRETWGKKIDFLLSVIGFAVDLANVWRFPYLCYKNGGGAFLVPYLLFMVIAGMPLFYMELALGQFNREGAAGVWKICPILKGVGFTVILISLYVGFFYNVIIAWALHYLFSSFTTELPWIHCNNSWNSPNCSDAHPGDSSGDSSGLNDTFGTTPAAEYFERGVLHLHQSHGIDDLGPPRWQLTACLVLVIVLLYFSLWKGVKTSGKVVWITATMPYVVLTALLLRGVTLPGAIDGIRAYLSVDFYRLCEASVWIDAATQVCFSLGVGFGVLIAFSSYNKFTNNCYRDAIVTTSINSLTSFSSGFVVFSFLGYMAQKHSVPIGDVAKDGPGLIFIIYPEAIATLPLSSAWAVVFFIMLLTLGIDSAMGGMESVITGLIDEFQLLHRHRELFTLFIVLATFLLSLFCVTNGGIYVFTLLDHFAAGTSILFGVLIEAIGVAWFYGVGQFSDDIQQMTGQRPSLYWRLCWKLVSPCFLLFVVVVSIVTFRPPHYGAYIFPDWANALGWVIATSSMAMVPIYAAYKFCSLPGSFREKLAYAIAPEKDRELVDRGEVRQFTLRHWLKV

Molecular target: Dopamine transporter (DAT) (human) (UniProt Q01959)
Assay: SDS-PAGE and Western blot (oligomeric band); lysates (modified RIPA buffer, sonicated) of DAT-transfected Wt and PREPko HEK-293 cells, 12% SDS-PAGE, blot with anti-DAT MAB369 said to be specific for oligomeric DAT; cells also co-transfected with PREP, S554A-PREP or aSyn, or treated with KYP-2047, PMA or Gö-6983

binding: binds
Substance: Dopamine transporter (DAT) (from UniProt Q01959 1-620)
